Experimental data: PubChem BioAssay AID1053208 (Peter MacCallum Cancer Centre, 2014)
Purpose: 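Synthetic lethal interactions between gene loss and doxorubicin in osteosarcoma cells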 (primary screen). Cells: mouse osteosarcoma cells, early-passage culture from an engineered mouse model of fibroblastic bone tumour. Reagents: siRNA pool against mouse genes, 40 nM. Time to read-out: about 120 h (48 h before drug, then 72 h with drug). Treatment: doxorubicin 100 nM for 72 h, roughly 30-40% inhibitory dose. Detection: 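Luminescent ATP signal taken as viability with or without 100 nM doxorubicin for 72 h; mean of two wells set against non-targeting siRNA and turned into robust z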. Scale: viability z-score with doxorubicin: higher = more viable cells under doxorubicin; viability z-score without drug: higher = more viable cells with knock-down alone; z-score of drug to no-drug ratio: higher = less drug sensitisation by knock-down. Hit rule: 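Called active if knock-down leaves viability unchanged without drug (z within -2 to 2) but lowers it with doxorubicin (z at or under -2)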.
The deposit covers about 17,000 reagents; this is a part drawn at random. 788 of them (4.7%) count as active. 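Calls rest on z-score classes alone; an extra cut-off of viability at most 70% of control was not applied to them.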 Entries without a mark were called inactive. Further read-outs or replicates are left out here.

Gene	combined z-score class	viability z-score with doxorubicin	viability z-score without drug	z-score of drug to no-drug ratio
Cebpe (CCAAT/enhancer binding protein epsilon)	no change with or without drug	1.12	1.18	0.45
Col25a1 (collagen, type XXV, alpha 1)	no change with or without drug	1.8	1.85	0.67
Pink1 (PTEN induced putative kinase 1)	no change with or without drug	0.45	0.84	0
Lypd3 (Ly6/Plaur domain containing 3)	low cell count with doxorubicin only (active)	-2.02	-1.69	-1.01
Or52r1 (olfactory receptor family 52 subfamily R member 1)	no change with or without drug	-1.01	-0.34	-0.79
Uggt2 (UDP-glucose glycoprotein glucosyltransferase 2)	no change with or without drug	-1.24	-0.51	-0.9
Sbsn (suprabasin)	no change with or without drug	-1.46	-0.51	-1.12
Gem (GTP binding protein overexpressed in skeletal muscle)	no change with or without drug	0.56	0.17	0.56
Laptm5 (lysosomal-associated protein transmembrane 5)	no change with or without drug	0.45	1.52	-0.45
Ifi205 (interferon activated gene 205)	no change with or without drug	-0.11	-0.51	0.34
Zfp879 (zinc finger protein 879)	low cell count with doxorubicin only (active)	-2.02	-0.34	-1.8
Casq1 (calsequestrin 1)	high cell count without drug only	0.79	2.19	-0.45
Noxo1 (NADPH oxidase organizer 1)	no change with or without drug	-0.67	-1.35	0.34
Cpne2 (copine II)	no change with or without drug	-0.9	-0.84	-0.22
Akr1c12 (aldo-keto reductase family 1, member C12)	no change with or without drug	-0.67	-0.51	-0.22
Marveld2 (MARVEL (membrane-associating) domain containing 2)	low cell count without drug only	-1.46	-2.53	0.34
Fbxo11 (F-box protein 11)	no change with or without drug	-0.45	1.01	-1.01
Or51i1 (olfactory receptor family 51 subfamily I member 1D)	no change with or without drug	0.11	-1.35	1.24
Vmn1r225 (vomeronasal 1 receptor 225)	no change with or without drug	-0.34	-0.84	0.34

Reformatted: entries from further up.
{"Gene": "Cebpe (CCAAT/enhancer binding protein epsilon)", "combined z-score class": "no change with or without drug", "viability z-score with doxorubicin": 1.12, "viability z-score without drug": 1.18, "z-score of drug to no-drug ratio": 0.45}
{"Gene": "Col25a1 (collagen, type XXV, alpha 1)", "combined z-score class": "no change with or without drug", "viability z-score with doxorubicin": 1.8, "viability z-score without drug": 1.85, "z-score of drug to no-drug ratio": 0.67}

Next records follow.
Gene	combined z-score class	viability z-score with doxorubicin	viability z-score without drug	z-score of drug to no-drug ratio
Rtn4ip1 (reticulon 4 interacting protein 1)	high cell count with and without drug	2.59	2.19	1.12
Elmo2 (engulfment and cell motility 2)	no change with or without drug	-1.57	1.52	-2.36
Hgsnat (heparan-alpha-glucosaminide N-acetyltransferase)	no change with or without drug	-0.22	0.51	-0.45
Or4l15 (olfactory receptor family 4 subfamily L member 15)	no change with or without drug	-1.12	-0.67	-0.67
Nthl1 (nth (endonuclease III)-like 1 (E.coli))	no change with or without drug	-0.79	-1.52	0.34
Scn3b (sodium channel, voltage-gated, type III, beta)	high cell count with doxorubicin only	2.25	1.52	1.35
Ehmt2 (euchromatic histone lysine N-methyltransferase 2)	no change with or without drug	0.34	0.17	0.34
Kcnk12 (potassium channel, subfamily K, member 12)	no change with or without drug	-1.35	-0.84	-0.79
Trim33 (tripartite motif-containing 33)	no change with or without drug	-1.12	0.17	-1.12
Sphk1 (sphingosine kinase 1)	no change with or without drug	1.46	1.52	0.56
Btc (betacellulin, epidermal growth factor family member)	no change with or without drug	-0.67	0.51	-0.9
Or5p51 (olfactory receptor family 5 subfamily P member 51)	no change with or without drug	-1.24	-1.35	-0.34
Fabp4 (fatty acid binding protein 4, adipocyte)	no change with or without drug	-0.56	-0.51	-0.11
Dlat (dihydrolipoamide S-acetyltransferase)	no change with or without drug	-0.22	1.01	-0.79
Brd4 (bromodomain containing 4)	no change with or without drug	0.45	-0.84	1.24
